This is an account of results in article PMC7819943, “Rice protein-binding microarrays: a tool to detect cis-acting elements near promoter regions in rice”.

The list shows a part of the results.

The target of the assay is T1, OsSMF1 (Oryza sativa, UniProt Q6ZLB0 1-436).
T1 sequence: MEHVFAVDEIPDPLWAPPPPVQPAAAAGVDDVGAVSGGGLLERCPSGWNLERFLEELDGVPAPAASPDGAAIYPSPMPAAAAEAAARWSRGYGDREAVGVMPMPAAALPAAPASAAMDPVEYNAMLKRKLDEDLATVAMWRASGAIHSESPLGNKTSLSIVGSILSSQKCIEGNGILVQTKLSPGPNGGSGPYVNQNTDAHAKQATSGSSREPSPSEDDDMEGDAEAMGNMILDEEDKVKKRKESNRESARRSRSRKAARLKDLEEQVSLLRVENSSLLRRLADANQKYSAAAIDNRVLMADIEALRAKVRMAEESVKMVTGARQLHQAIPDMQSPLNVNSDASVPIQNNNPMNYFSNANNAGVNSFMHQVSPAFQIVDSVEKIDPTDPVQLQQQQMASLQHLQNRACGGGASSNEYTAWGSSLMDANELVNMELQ
As to the kind of experiment: protein-binding microarray (RPBM); PBS, 2% BSA, 51.3 ng/ul salmon testes DNA, 50 uM zinc acetate, 200 nM TF, 25 C, 1 h; high values mean tight binding. The following applies: protein: recombinant; tags: N-terminal polyhistidine and DsRed monomer fusion (pET32a); chain copies: 2; label: CyDye5-dUTP incorporated in the synthesized complementary strand; 3' TTTTT single-stranded linker to array surface; dsDNA, one strand shown. The essentials:
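For the binding signal, per-feature fluorescence intensity was read in arbitrary units on an Axon 4000B scanner. Before scanning, a 2% BSA-blocked custom Agilent array made double-stranded with Cy5-dUTP was washed after 1 h at 25 °C with 200 nM protein and 50 µM zinc acetate. The proteins were Ni–NTA-purified transcription factors with N-terminal polyhistidine and DsRed fusions, expressed in E. coli BL21-CodonPlus.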
For “TAGGCCTAGGCCTGGGCGGACGGCGACAGGCGGGGACGGGCGGAGTCACCTAGTGCAG”, the binding signal is 3680 fluorescence intensity (a.u.). Then “CTCAGTCGTGCGTGCCTCGTGTAACGCAGGTGTTCGTTCCCGGAGTCACCTAGTGCAG”, with 3430 fluorescence intensity (a.u.); and “CGGTAGGATACGTGGACCCGGTCTTGGTGCTCCCCGTGTACGGAGTCACCTAGTGCAG”, with 5860 fluorescence intensity (a.u.). For “CAGCAGCAGCAGCAGCAATGTCCGGCACCGCCAACGCGACCGGAGTCACCTAGTGCAG”, the binding signal is 3140 fluorescence intensity (a.u.). Take “AAAACGCTAGTGTGATCCACGTATGGCCCATAAATATTGGCGGAGTCACCTAGTGCAG”: the binding signal was 6700 fluorescence intensity (a.u.). Under “TAGACCAAAATGCCCCTGACGCGGGCCCCACCTGTCATACCGGAGTCACCTAGTGCAG” stands 4730 fluorescence intensity (a.u.); under “CTGACAGCTTTTAGTTCACAAATATCAGTAAGATTTCCCTCGGAGTCACCTAGTGCAG”, 43200 fluorescence intensity (a.u.). Under “ATCCATGCGTGAGGATCGGAGTACGTGTTTATCTGATGGACGGAGTCACCTAGTGCAG” stands 4100 fluorescence intensity (a.u.); under “CATTTCCCCACGCACGCTGGCGTAGTTCATCCCAACGTCACGGAGTCACCTAGTGCAG”, 4160 fluorescence intensity (a.u.); under “GTCAGACGACGCCTGGAACGAGCCCAATCCAAGGCCCACACGGAGTCACCTAGTGCAG”, 27700 fluorescence intensity (a.u.). Under “GCATAGCCTACTTATACTGAACCTTCTAACGTGTCGGATTCGGAGTCACCTAGTGCAG” stands 3700 fluorescence intensity (a.u.). Regarding “GGCGTACAGGTGGCGCACAAGGTTGTGGCCATTGCCGGAGCGGAGTCACCTAGTGCAG”, the binding signal is 3680 fluorescence intensity (a.u.).

Turning to “ATGCTGATGAATCAAGACGCCTCTACGGCCGATCTCGGGCCGGAGTCACCTAGTGCAG”, the binding signal is 15100 fluorescence intensity (a.u.).

As to “GGTGGCCCCGAGGAGGTGCGCGTGGCGGCCGTGGCGCCGGCGGAGTCACCTAGTGCAG”, the binding signal is 3840 fluorescence intensity (a.u.).

On to “GACGCCGTCGAGGCTCGTGGCGGTCGGCGCCACGTCCTCGCGGAGTCACCTAGTGCAG”, for which the binding signal was 12300 fluorescence intensity (a.u.).

Turning to “CGGGGCAGCCGGCCATGACCATCCGCAGGTCCTGCAGGCTCGGAGTCACCTAGTGCAG”, the binding signal is 20000 fluorescence intensity (a.u.). Then “ATGGACCGCCACCTCGCGCCGAGCTTCCAGATCCCGCCGGCGGAGTCACCTAGTGCAG”, with 3380 fluorescence intensity (a.u.); and “ATCTGTTTAACATCGAATCGATCTCATCCAACGTCTTCGGCGGAGTCACCTAGTGCAG”, with 3910 fluorescence intensity (a.u.); and “GGCCGGCCCGTCGCTCCACGCCTCGGATCACCACTGTCTTCGGAGTCACCTAGTGCAG”, with 3320 fluorescence intensity (a.u.). “GGTGACAGGCAGTCCACATCCTTATCGCTCTTTGCTAGTTCGGAGTCACCTAGTGCAG”: the binding signal is 3890 fluorescence intensity (a.u.). Then “TTTCTTTATAATACGATGTTGACTGTATCAACTGTTTCTTCGGAGTCACCTAGTGCAG”, with 5040 fluorescence intensity (a.u.); and “AATCAATGCGATGGTACGTGCTGTAACTGTAATCGATCACCGGAGTCACCTAGTGCAG”, with 4650 fluorescence intensity (a.u.). Then “TGAAATGTTTCCCGTCAAGGCGTCAAATACGCACAGTTTTCGGAGTCACCTAGTGCAG”, with 6140 fluorescence intensity (a.u.). Under “ACCCAGTGTCATCGCACTGTACTAAAAGTTAGCCACGTTACGGAGTCACCTAGTGCAG” stands 3930 fluorescence intensity (a.u.). As to “GCTAGGAGGAATGTGGCATCACCATCAGCTTCTGCATTGGCGGAGTCACCTAGTGCAG”, the binding signal is 3440 fluorescence intensity (a.u.). Then “CTTGCTGGTGGAGAATGACGCTGCGTTCATGCGGCCTCCGCGGAGTCACCTAGTGCAG”, with 3670 fluorescence intensity (a.u.); and “GATCGGTTAGTCTCGTTAATTTCGTCATCAGCATTATACTCGGAGTCACCTAGTGCAG”, with 5540 fluorescence intensity (a.u.). Turning to “TCACTCAAATTTACAGTGCATTTTCTTGTAAGTTACAGTGCGGAGTCACCTAGTGCAG”, the binding signal was 4800 fluorescence intensity (a.u.). Under “TGGGGATGGATATGGCGCTCCGGGGATGGAGGTGGTGGTGCGGAGTCACCTAGTGCAG” stands 3490 fluorescence intensity (a.u.); under “TTAATCATATTTTAATTACCTTTATATTCCACGTGTGACTCGGAGTCACCTAGTGCAG”, 7990 fluorescence intensity (a.u.). As for “TATACTAATGACTCATTTCATATTAGGTATCCTGTCCTTTCGGAGTCACCTAGTGCAG”, the binding signal was 7610 fluorescence intensity (a.u.).

Turning to “TGCGCTTGCCTCGGAGTCGGTGGCATCTTACCTGCCGCCACGGAGTCACCTAGTGCAG”, the binding signal is 3680 fluorescence intensity (a.u.).

With “CTGGACAGGAAGCAAAGCTCCTGACACGCCCAGCCGTCCCCGGAGTCACCTAGTGCAG”, the binding signal was 3220 fluorescence intensity (a.u.). Regarding “CGAGTGGACGGAGGAGGAGAGGACGTGGCTCCACGGAGACCGGAGTCACCTAGTGCAG”, the binding signal was 7830 fluorescence intensity (a.u.). Under “TTTTGAGACGAACACGTGTCGGGCGCCGACGTCACGTCGCCGGAGTCACCTAGTGCAG” stands 16300 fluorescence intensity (a.u.); under “AATCGAACCCGGGTCTGTACCGTGGCAGGGTACTATTCTACGGAGTCACCTAGTGCAG”, 3290 fluorescence intensity (a.u.). Under “CCAGCTTGGGTATCAGGGTACACGTGCTACACTTTTAGAGCGGAGTCACCTAGTGCAG” stands 3140 fluorescence intensity (a.u.). Then “TCCTCGTCTGCCTTAATGGTGACTCAACTCTAAAAGTTCTCGGAGTCACCTAGTGCAG”, with 9760 fluorescence intensity (a.u.).

“CAGCTCAATAAAACGCAGACGTGGAGGGTGTCGCGGCGCCCGGAGTCACCTAGTGCAG”: the binding signal was 6610 fluorescence intensity (a.u.). Under “TGTCTCCCTCATTCCTTGCAGAGTTGCAGTTGATGTGGCTCGGAGTCACCTAGTGCAG” stands 3230 fluorescence intensity (a.u.).

With “CTTCCGTTTGACGCGGTAGCTGACCAGCCTATGATATACTCGGAGTCACCTAGTGCAG”, the binding signal is 3560 fluorescence intensity (a.u.). Then “CATTCTATGAGCTAGACCTGGGGCTCAATCATGTCTCGCGCGGAGTCACCTAGTGCAG”, with 35100 fluorescence intensity (a.u.).
